Taken from: PubChem BioAssay AID1259254 (NCATS, 2017)
Purpose: 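Gene knock-downs that lead to re-replication, shown by excess G2 DNA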 (primary screen). System: human HCT116 colorectal cancer cells. Reagent: single siRNA against human genes. Time to read-out: 3 days. Read-out: 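Nuclei stained with Hoechst and imaged; cell-cycle phase assigned by DNA content; G2 share scaled per plate, non-targeting siRNA 0%, GMNN siRNA 100%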. Scale: G2 robust z-score and G2 cells, % of GMNN control: higher = more G2 cells, more excess DNA replication. Hit rule: 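Active siRNAs have a G2 robust z of 5 or more median absolute deviations over the median, which in these data means about 38% or higher of GMNN control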.
The whole screen tested about 59,000 reagents; this is an unselected part. About 1,550 of all reagents (2.6%) were called active. 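G2 share is only a proxy for re-replication; each gene was hit by three separate siRNAs, and active genes were retested.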 The numbers tell different reagents against one gene apart. Further read-outs or replicates are left out here. Not given: the amount of reagent.

| gene symbol | reagent | G2 robust z-score | G2 cells, % of GMNN control | activity call |
| --- | --- | --- | --- | --- |
| SOCS2 | 1 | 0.335 | 5.32 | inactive |
| SOCS2 | 2 | 0.673 | 7.7 | inactive |
| SOCS2 | 3 | -0.457 | -0.247 | inactive |
| SUN3 | 1 | 0.473 | 6.29 | inactive |
| SUN3 | 2 | 2.29 | 19.1 | inactive |
| SUN3 | 3 | 0.18 | 4.24 | inactive |
| SQLE | 1 | -0.427 | -0.039 | inactive |
| SQLE | 2 | -0.716 | -2.07 | inactive |
| SQLE | 3 | 1.11 | 10.7 | inactive |
| HSPA4 | 1 | 2.19 | 18.4 | inactive |
| HSPA4 | 2 | 0.331 | 5.3 | inactive |
| HSPA4 | 3 | -0.0682 | 2.49 | inactive |
| RTBDN | 1 | -0.1 | 2.26 | inactive |
| RTBDN | 2 | -1.09 | -4.71 | inactive |
| RTBDN | 3 | 1.08 | 10.6 | inactive |
| PNPP1 | 1 | -0.724 | -2.13 | inactive |
| PNPP1 | 2 | -0.354 | 0.474 | inactive |
| PNPP1 | 3 | -0.527 | -0.74 | inactive |
| CEP55 | 1 | -0.364 | 0.409 | inactive |
| CEP55 | 2 | 1.74 | 15.2 | inactive |
| CEP55 | 3 | 2.87 | 23.2 | inactive |
| LOC645195 (retired record) | 1 | -0.206 | 1.52 | inactive |
| LOC645195 (retired record) | 2 | 1.34 | 12.4 | inactive |
| LOC645195 (retired record) | 3 | 0.988 | 9.92 | inactive |
| SPANXN1 | 1 | -0.0437 | 2.66 | inactive |
| SPANXN1 | 2 | -0.0423 | 2.67 | inactive |
| SPANXN1 | 3 | 3.53 | 27.8 | inactive |
| OTUD7B | 1 | 1.77 | 15.4 | inactive |
| OTUD7B | 2 | -0.358 | 0.448 | inactive |
| OTUD7B | 3 | 0.412 | 5.86 | inactive |
| OR5M9 | 1 | -0.768 | -2.44 | inactive |
| OR5M9 | 2 | 0.0821 | 3.54 | inactive |
| OR5M9 | 3 | 0.328 | 5.28 | inactive |
| HPGDS | 1 | 0.159 | 4.09 | inactive |
| HPGDS | 2 | 5.98 | 45.1 | active |
| HPGDS | 3 | 1.39 | 12.7 | inactive |
| ZNF354B | 1 | 0.151 | 4.03 | inactive |
| ZNF354B | 2 | 0.35 | 5.43 | inactive |
| ZNF354B | 3 | 2.21 | 18.5 | inactive |
| PCDHA3 | 1 | -0.121 | 2.12 | inactive |
| PCDHA3 | 2 | -0.62 | -1.4 | inactive |
| PCDHA3 | 3 | 3.02 | 24.2 | inactive |
| MYL7 | 1 | -0.203 | 1.54 | inactive |
| MYL7 | 2 | 2.39 | 19.8 | inactive |
| MYL7 | 3 | 4.09 | 31.8 | inactive |
| MRPS2 | 1 | -0.386 | 0.25 | inactive |
| MRPS2 | 2 | 0.204 | 4.4 | inactive |
| MRPS2 | 3 | 4.76 | 36.4 | inactive |
| NRXN1 | 1 | -0.02 | 2.83 | inactive |
| NRXN1 | 2 | 0.188 | 4.29 | inactive |
| NRXN1 | 3 | 0.376 | 5.61 | inactive |
| TRIM42 | 1 | 0.428 | 5.98 | inactive |
| TRIM42 | 2 | -0.517 | -0.669 | inactive |
| TRIM42 | 3 | -0.471 | -0.348 | inactive |
| TRA2B | 1 | 1.01 | 10.1 | inactive |
| TRA2B | 2 | 0.256 | 4.77 | inactive |
| TRA2B | 3 | -0.356 | 0.459 | inactive |
| HMGN1 | 1 | -0.52 | -0.692 | inactive |
| HMGN1 | 2 | -0.243 | 1.25 | inactive |
| HMGN1 | 3 | 0.679 | 7.74 | inactive |
| TUBA1B | 1 | 4.37 | 33.7 | inactive |
| TUBA1B | 2 | 2.82 | 22.8 | inactive |
| TUBA1B | 3 | 1.78 | 15.5 | inactive |
| SRSF2 | 1 | -1.79 | -9.61 | inactive |
| SRSF2 | 2 | -1.16 | -5.17 | inactive |
| SRSF2 | 3 | 3.05 | 24.5 | inactive |
| EPHA6 | 1 | -0.84 | -2.94 | inactive |
| EPHA6 | 2 | -0.454 | -0.225 | inactive |
| EPHA6 | 3 | 0.0726 | 3.48 | inactive |
| LONRF2 | 1 | 2.42 | 20 | inactive |
| LONRF2 | 2 | 0.0128 | 3.06 | inactive |
| LONRF2 | 3 | -0.656 | -1.65 | inactive |
| GIT1 | 1 | -0.21 | 1.49 | inactive |
| GIT1 | 2 | 0.603 | 7.21 | inactive |
| GIT1 | 3 | -0.897 | -3.35 | inactive |
| FLNA | 1 | -0.135 | 2.02 | inactive |
| FLNA | 2 | -1.16 | -5.18 | inactive |
| FLNA | 3 | 0.852 | 8.96 | inactive |
| MCTP1 | 1 | 0.417 | 5.9 | inactive |
| MCTP1 | 2 | 0.783 | 8.47 | inactive |
| MCTP1 | 3 | 0.365 | 5.53 | inactive |
| LINC01116 | 1 | 0.701 | 7.9 | inactive |
| LINC01116 | 2 | 0.851 | 8.95 | inactive |
| LINC01116 | 3 | 1.09 | 10.7 | inactive |
| PRM1 | 1 | 10.3 | 75.3 | active |
| PRM1 | 2 | -0.237 | 1.3 | inactive |
| PRM1 | 3 | 0.11 | 3.74 | inactive |

Targets listed so far whose gene name starts with P or p:
| gene symbol | reagent | G2 robust z-score | G2 cells, % of GMNN control | activity call |
| --- | --- | --- | --- | --- |
| PNPP1 | 1 | -0.724 | -2.13 | inactive |
| PNPP1 | 2 | -0.354 | 0.474 | inactive |
| PNPP1 | 3 | -0.527 | -0.74 | inactive |
| PCDHA3 | 1 | -0.121 | 2.12 | inactive |
| PCDHA3 | 2 | -0.62 | -1.4 | inactive |
| PCDHA3 | 3 | 3.02 | 24.2 | inactive |
| PRM1 | 1 | 10.3 | 75.3 | active |
| PRM1 | 2 | -0.237 | 1.3 | inactive |
| PRM1 | 3 | 0.11 | 3.74 | inactive |
